The values that follow come from the supplement of paper PMC10849652.

Sequences of proteins named here, by UniProt entry; tags and fusion partners are left off. A change or cut given only in a name is not applied to a line headed by its entry.
UniProt Q99567: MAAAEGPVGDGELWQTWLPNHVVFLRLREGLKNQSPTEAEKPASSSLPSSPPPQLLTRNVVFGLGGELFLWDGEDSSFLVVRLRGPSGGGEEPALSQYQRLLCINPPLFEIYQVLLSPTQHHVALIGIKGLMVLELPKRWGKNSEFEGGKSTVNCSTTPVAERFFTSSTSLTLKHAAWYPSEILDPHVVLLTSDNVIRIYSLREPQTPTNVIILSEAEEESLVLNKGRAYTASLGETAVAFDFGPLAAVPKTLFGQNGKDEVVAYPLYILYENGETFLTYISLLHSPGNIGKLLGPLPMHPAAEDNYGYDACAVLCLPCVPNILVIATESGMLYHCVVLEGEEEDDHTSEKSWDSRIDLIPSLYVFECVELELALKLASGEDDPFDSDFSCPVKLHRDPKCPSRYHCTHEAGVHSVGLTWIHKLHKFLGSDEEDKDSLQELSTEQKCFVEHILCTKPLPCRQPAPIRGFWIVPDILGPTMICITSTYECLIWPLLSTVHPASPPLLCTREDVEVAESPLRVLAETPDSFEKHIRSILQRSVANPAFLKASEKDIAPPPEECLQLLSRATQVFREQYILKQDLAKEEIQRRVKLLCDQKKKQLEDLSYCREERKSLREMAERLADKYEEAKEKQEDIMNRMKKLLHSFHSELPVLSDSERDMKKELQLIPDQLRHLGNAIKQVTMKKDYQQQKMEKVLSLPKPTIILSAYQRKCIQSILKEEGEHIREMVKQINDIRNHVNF
UniProt O15381: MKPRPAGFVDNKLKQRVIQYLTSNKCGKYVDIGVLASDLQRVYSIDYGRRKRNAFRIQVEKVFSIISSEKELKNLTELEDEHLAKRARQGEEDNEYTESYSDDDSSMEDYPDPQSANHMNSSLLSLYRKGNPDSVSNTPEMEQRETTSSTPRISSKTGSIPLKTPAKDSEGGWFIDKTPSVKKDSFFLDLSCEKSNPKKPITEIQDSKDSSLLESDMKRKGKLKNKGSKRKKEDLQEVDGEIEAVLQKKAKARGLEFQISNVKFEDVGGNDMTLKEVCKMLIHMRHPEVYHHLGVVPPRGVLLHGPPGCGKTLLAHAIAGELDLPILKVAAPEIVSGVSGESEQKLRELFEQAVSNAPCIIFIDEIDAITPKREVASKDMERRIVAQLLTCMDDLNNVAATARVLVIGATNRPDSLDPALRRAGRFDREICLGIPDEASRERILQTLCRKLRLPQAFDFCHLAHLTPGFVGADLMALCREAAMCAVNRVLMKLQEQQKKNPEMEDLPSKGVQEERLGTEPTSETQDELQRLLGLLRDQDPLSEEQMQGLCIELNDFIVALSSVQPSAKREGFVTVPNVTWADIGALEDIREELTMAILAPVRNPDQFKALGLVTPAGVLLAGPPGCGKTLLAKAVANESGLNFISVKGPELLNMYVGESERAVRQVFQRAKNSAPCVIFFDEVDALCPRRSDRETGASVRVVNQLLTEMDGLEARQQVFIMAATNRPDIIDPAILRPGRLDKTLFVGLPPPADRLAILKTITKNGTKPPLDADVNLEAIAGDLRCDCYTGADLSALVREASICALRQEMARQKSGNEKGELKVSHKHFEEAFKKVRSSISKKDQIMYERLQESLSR
UniProt P50583: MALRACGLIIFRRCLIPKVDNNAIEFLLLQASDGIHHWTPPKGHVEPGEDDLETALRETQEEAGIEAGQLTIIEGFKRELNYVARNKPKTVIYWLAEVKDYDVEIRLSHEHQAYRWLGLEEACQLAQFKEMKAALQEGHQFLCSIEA
UniProt Q8TCD5: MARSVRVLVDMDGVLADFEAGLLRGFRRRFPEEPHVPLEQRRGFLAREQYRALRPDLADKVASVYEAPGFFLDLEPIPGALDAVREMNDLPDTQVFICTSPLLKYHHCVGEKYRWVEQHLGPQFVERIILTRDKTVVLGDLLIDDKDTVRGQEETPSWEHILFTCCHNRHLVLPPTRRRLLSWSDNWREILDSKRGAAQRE
UniProt O43482, whole entry, looked up: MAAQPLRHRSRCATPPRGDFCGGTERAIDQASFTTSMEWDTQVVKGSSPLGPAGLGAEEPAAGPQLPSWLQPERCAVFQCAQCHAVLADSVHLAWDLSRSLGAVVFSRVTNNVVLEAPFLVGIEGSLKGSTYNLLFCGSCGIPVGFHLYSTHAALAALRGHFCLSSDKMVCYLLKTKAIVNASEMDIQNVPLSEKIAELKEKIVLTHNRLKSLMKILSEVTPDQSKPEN
UniProt Q8WUM0: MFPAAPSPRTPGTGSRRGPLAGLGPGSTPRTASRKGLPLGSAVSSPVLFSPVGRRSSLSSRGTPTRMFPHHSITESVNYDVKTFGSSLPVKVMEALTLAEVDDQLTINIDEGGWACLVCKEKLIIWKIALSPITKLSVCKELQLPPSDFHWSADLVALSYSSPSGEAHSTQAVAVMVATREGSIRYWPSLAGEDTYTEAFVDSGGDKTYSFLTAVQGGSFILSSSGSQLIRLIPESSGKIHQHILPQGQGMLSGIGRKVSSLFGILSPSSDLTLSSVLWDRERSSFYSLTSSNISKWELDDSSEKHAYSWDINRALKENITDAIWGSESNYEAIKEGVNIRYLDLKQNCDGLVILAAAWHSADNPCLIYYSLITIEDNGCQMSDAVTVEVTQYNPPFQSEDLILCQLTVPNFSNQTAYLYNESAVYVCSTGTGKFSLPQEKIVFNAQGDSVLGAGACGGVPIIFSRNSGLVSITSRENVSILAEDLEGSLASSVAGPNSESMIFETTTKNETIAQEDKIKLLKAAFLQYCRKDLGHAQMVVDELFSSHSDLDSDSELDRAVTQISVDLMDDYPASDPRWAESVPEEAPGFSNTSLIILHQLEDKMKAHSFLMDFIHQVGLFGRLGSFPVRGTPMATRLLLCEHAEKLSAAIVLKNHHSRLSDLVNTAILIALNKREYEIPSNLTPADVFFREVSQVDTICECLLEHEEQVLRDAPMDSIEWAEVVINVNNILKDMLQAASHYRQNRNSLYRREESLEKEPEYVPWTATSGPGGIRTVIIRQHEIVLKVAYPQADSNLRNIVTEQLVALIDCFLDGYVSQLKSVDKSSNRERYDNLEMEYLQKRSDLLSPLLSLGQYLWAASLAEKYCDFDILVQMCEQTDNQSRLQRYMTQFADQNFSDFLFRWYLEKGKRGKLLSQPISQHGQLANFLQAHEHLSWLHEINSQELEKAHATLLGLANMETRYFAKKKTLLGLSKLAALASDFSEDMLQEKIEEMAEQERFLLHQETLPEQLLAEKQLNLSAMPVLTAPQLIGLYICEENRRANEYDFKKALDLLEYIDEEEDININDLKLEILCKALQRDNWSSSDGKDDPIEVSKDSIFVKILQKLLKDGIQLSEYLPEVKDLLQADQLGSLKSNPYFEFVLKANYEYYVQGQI
UniProt Q9H0G5: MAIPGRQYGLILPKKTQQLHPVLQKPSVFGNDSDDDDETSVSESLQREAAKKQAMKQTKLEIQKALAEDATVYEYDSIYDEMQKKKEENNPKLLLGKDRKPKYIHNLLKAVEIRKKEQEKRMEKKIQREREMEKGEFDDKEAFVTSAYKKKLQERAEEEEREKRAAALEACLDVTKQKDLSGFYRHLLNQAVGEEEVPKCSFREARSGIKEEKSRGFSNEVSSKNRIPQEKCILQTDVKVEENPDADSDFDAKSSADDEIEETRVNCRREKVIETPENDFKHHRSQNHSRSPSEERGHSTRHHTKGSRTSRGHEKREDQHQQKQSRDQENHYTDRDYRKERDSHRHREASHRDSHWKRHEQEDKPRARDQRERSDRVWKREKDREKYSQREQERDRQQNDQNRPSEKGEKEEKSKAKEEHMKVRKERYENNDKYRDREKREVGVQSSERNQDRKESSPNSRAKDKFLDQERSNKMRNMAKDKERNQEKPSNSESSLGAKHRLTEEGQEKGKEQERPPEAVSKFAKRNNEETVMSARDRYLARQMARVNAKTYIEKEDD
UniProt P00480: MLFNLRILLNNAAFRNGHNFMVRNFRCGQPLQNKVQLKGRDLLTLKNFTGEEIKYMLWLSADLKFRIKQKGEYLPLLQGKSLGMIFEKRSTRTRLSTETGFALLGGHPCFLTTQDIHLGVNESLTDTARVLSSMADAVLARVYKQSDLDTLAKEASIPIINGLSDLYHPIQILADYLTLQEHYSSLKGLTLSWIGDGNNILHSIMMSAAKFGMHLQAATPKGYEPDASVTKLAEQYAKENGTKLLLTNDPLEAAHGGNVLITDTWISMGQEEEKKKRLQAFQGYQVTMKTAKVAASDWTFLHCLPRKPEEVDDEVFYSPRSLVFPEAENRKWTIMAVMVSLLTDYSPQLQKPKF
UniProt Q9BV86: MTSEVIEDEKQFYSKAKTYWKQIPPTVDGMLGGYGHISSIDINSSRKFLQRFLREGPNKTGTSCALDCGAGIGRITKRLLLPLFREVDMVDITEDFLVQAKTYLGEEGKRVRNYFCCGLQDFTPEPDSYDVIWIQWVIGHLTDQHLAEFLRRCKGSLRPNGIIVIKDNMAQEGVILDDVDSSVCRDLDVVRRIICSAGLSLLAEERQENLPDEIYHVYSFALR
UniProt Q14980: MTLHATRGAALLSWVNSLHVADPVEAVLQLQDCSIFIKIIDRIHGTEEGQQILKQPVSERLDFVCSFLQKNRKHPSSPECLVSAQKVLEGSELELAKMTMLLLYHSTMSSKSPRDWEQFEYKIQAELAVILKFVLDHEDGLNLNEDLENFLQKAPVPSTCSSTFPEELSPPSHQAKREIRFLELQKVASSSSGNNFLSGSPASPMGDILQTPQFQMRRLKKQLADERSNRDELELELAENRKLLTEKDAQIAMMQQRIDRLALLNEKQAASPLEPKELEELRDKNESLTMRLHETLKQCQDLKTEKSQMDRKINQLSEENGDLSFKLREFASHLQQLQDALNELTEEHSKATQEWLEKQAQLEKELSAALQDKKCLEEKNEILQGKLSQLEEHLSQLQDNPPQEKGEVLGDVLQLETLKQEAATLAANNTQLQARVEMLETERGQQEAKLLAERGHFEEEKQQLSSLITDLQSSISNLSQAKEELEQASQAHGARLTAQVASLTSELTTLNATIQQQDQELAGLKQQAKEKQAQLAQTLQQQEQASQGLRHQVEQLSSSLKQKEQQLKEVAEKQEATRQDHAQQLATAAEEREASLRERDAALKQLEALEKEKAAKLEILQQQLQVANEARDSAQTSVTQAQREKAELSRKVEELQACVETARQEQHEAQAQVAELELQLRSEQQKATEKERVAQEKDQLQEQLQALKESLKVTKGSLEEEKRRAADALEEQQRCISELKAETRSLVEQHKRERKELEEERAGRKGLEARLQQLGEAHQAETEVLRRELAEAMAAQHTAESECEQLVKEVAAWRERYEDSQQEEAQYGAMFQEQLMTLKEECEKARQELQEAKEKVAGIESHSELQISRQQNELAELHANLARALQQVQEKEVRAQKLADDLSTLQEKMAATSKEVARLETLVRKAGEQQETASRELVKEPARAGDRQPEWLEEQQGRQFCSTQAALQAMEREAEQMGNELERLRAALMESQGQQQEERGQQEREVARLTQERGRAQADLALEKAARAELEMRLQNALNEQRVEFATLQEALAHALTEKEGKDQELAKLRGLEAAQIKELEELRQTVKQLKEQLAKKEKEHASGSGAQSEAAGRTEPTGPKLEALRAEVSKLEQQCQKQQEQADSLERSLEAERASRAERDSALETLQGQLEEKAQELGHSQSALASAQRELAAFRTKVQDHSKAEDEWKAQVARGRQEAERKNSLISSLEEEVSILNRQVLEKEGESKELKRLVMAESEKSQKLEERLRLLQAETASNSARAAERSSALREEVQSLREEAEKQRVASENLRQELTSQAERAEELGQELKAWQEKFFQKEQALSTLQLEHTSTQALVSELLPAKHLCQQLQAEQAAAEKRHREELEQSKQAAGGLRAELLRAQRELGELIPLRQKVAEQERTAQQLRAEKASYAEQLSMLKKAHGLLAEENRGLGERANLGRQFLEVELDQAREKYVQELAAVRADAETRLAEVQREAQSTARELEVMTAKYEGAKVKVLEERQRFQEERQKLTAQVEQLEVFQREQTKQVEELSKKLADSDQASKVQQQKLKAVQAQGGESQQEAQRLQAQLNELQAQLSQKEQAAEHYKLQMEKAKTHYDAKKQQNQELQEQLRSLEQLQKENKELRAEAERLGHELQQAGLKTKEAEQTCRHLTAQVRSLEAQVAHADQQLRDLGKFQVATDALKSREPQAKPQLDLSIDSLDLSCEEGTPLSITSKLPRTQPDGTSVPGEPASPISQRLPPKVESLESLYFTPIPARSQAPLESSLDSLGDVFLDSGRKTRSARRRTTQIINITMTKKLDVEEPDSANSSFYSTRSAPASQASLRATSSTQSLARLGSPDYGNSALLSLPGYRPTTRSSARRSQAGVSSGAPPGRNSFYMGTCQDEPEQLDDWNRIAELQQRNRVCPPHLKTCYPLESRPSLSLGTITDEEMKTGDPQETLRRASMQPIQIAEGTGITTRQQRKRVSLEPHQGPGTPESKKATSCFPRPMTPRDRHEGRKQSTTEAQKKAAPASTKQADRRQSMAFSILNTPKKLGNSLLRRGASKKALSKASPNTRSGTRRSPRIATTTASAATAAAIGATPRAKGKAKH

This is one part of the list.

Compound in the assay: C1=CC=C(C=C1)[C@H](COC2=CC3=C(C=C2)NC(=O)N3)NC(=O)C4=CC=CN(C4=O)CC5=CC(=C(C=C5)F)F
Description: log2 fold change, soluble protein after heating vs DMSO (PISA); higher = thermal stabilisation; K562 cells, 10 uM, 30 min; active = over 0.2 and 3.5 SD of the protein, either way, in both replicates (recomputed). Summed up: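 K562 cells at 2×10^6 cells/mL were treated with 10 μM compound for 30 min. Aliquots were heated for 3 min across 48°C-58°C, pooled, and extracted in PBS with 0.5% NP-40 at 4°C; soluble protein was the supernatant after 21,000xg for 90 min. Soluble protein was quantified by TMTpro 16plex LC-MS/MS with channel sums equalised, and reported as log2 fold change in thermal stability against DMSO controls, with values from duplicates.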
As for NT5C2 (UniProt P49902), the log2 fold change was inactive: 0.007.
Regarding NUP88 (UniProt Q99567), the log2 fold change is inactive: -0.069.
For NVL (UniProt O15381), the log2 fold change was inactive: -0.039.
With NUDT2 (UniProt P50583), the log2 fold change is inactive: -0.065.
Next, NT5C (UniProt Q8TCD5): inactive: 0.021; OIP5 (UniProt O43482): inactive: 0.023; OGFOD1 (UniProt Q8N543): inactive: -0.02.
Next, NUP133 (UniProt Q8WUM0): inactive: -0.034; NSRP1 (UniProt Q9H0G5): inactive: 0.048; NUP54 (UniProt Q7Z3B4): inactive: -0.135.
As for NUMB (UniProt P49757), the log2 fold change was inactive: 0.
As for OTC (UniProt P00480), the log2 fold change was inactive: -0.06.
For NTMT1 (UniProt Q9BV86), the log2 fold change was inactive: 0.001.
For NUMA1 (UniProt Q14980), the log2 fold change was inactive: 0.027.
